Experimental data: PubChem BioAssay AID652243 (Drosophila RNAi Screening Center, 2013)
Assay: 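Fly regulators of androgen-dependent reporter output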 (primary screen). System: Drosophila S2R+ cells. Reagents: long dsRNA against Drosophila genes. Duration: 72 h (48 h, then 24 h hormone). Challenge: synthetic androgen R1881 at 10 nM for 24 h. Detection: 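Firefly light from an androgen-responsive reporter and Renilla control light per well, raw and unnormalised, for each of two replicates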. Scale: firefly reporter light: higher = more light from androgen-responsive reporter; Renilla control light: higher = more constitutive control signal (cell number, transfection). Active means: 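Hit when the log firefly-to-Renilla ratio dropped or increased by a fixed fold versus the mean of GFP or LacZ controls across duplicate plates; lowering cut given as 1.5 and as 3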. Meaning of the calls: active = hit: reporter lowered or raised; inactive = no hit.
The screen tested about 24,000 reagents; below is an unselected part of those with a known target gene and a result. Of all reagents, 246 (1%) were called active. 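Plates not normalised; calls are printed but the firefly/Renilla ratio behind them is not deposited; fold cut for lowering reported inconsistently.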 Raw values are not corrected between plates. A number with no mark means an inactive call. Names joined by + are all predicted targets of the reagent. Not given: the amount of reagent.

Gene	dsRNA	firefly reporter light, replicate 1	firefly reporter light, replicate 2	Renilla control light, replicate 1	Renilla control light, replicate 2
snRNP-U1-C (small ribonucleoprotein particle U1 subunit C)	DRSC15804	2.40e5	2.80e5	3.59e6	2.85e6
Clbn (Caliban)	DRSC14404	1.88e5	2.71e5	2.52e6	1.97e6
CG7406	DRSC20042	1.06e5	40368	4.14e5	1.62e5
CG7406	DRSC28709	3.51e5	3.43e5	1.41e6	1.67e6
CG43072	DRSC11688	2.40e5	3.68e5	2.26e6	2.82e6
Dhx15 (DEAH-box helicase 15)	DRSC06036	1.47e6	1.12e6	1.95e6	1.68e6
Dhx15 (DEAH-box helicase 15)	DRSC30094	9.50e5	9.03e5	1.19e6	1.09e6
Cyp6d4 (Cytochrome P450 6d4)	DRSC16633	1.04e5	1.19e5	1.10e6	1.25e6
Cyp6d4 (Cytochrome P450 6d4)	DRSC24371	4.02e5	2.61e5	6.23e5	3.10e5
smo (smoothened)	DRSC00837	7.83e5	7.66e5	2.44e6	1.37e6
smo (smoothened)	DRSC28492	2.72e5	4.36e5	9.49e5	1.53e6
Hrb87F (Heterogeneous nuclear ribonucleoprotein at 87F)	DRSC16708	34861	17260	2.88e5	1.27e5
Hrb87F (Heterogeneous nuclear ribonucleoprotein at 87F)	DRSC29600	3.16e5	3.42e5	1.30e6	1.30e6
CG3345	DRSC00596	1.12e6	5.76e5	3.45e6	9.84e5
Daao2 (D-amino acid oxidase 2)	DRSC02135	8.69e5	7.53e5	1.96e6	1.78e6
T3dh (Type III alcohol dehydrogenase)	DRSC28231	4.89e5	6.78e5	1.37e6	1.80e6
CG13073	DRSC09956	1.08e5	1.05e5	1.43e6	1.28e6
CG13073	DRSC24693	8.10e5	5.95e5	8.11e5	9.59e5
Phb2 (Prohibitin 2)	DRSC06512	4.37e5	5.64e5	3.71e6	4.65e6
CG32374	DRSC10986	2.78e5	1.95e5	2.11e6	2.44e6
CG14744	DRSC06480	4.52e5	3.74e5	2.58e6	1.63e6
thw (thawb)	DRSC12552	41152	80544	1.28e6	1.53e6
CG10866	DRSC08171	1.13e5	1.57e5	1.01e6	1.95e6
CG10866	DRSC29672	2.35e5	4.25e5	6.27e5	6.27e5
eIF3l (eukaryotic translation initiation factor 3 subunit l)	DRSC10530	2.40e5	1.55e5	2.20e6	2.34e6
eIF3l (eukaryotic translation initiation factor 3 subunit l)	DRSC26186	3.04e5	4.22e5	3.26e5	7.15e5
CG4734	DRSC06885	2.90e5	2.98e5	1.74e6	2.26e6
CG4734	DRSC22072	6.58e5	5.85e5	2.60e5	2.09e5
CG14223	DRSC19580	1.37e5	1.04e5	3.44e5	2.38e5
CG14223	DRSC24816	5.98e5	7.05e5	8.56e5	9.18e5
sala + CG43355	DRSC01188	5.16e5	9.31e5	9.90e5	1.07e6
sala + CG43355	DRSC03605	3.24e5	4.26e5	2.54e6	2.95e6
CG6567 + CG4565	DRSC15599	1.03e5	88274	1.94e6	1.57e6
Trpml + CG42638	DRSC11032	25094	30691	3.34e5	2.88e5
CG13375	DRSC18621	2.52e5	2.21e5	2.41e6	2.64e6
spaw (spacewatch)	DRSC06824	1.76e5	2.84e5	1.49e6	1.27e6
sfl (sulfateless)	DRSC08828	1.14e5	1.61e5	4.52e5	4.44e5
sfl (sulfateless)	DRSC08830	1.20e5	1.26e5	4.78e5	4.03e5
sfl (sulfateless)	DRSC25916	2.83e5	3.11e5	7.43e5	6.26e5
DCTN5-p25 (Dynactin 5, p25 subunit)	DRSC03525	2.19e5	1.97e5	1.91e6	2.04e6
DCTN5-p25 (Dynactin 5, p25 subunit)	DRSC26867	3.30e5	3.34e5	8.59e5	8.35e5
CG10211	DRSC02027	1.38e5	1.08e5	1.21e6	1.44e6
CG10211	DRSC28675	4.24e5	2.92e5	2.00e6	1.56e6
Or33c (Odorant receptor 33c)	DRSC03388	2.08e5	2.56e5	1.17e6	1.37e6
Myo61F (Myosin 61F)	DRSC22144	1.37e6	1.22e6	2.17e6	1.95e6
Myo61F (Myosin 61F)	DRSC27633	1.96e5	1.75e5	3.04e5	4.69e5
fdl (fused lobes)	DRSC07279	2.52e5	2.01e5	1.54e6	1.46e6
fdl (fused lobes)	DRSC26852	2.85e5	2.95e5	5.87e5	4.73e5
Mal-A6 (Maltase A6)	DRSC07233	3.51e5	3.54e5	2.11e6	2.11e6
Mal-A6 (Maltase A6)	DRSC27167	3.35e5	2.47e5	4.54e5	3.33e5
CG6966	DRSC16156	96531	80808	1.63e6	1.68e6
CG6966	DRSC24518	5.52e5	5.98e5	5.54e5	1.02e6
Hmu (Hemomucin)	DRSC16705	80213	94963	1.59e6	1.33e6
Hmu (Hemomucin)	DRSC28454	5.19e5	7.30e5	5.33e5	7.05e5
CG33263	DRSC10108	2.99e5	2.71e5	2.59e6	1.92e6
CG42741	DRSC04593	4.24e5	4.09e5	3.17e6	2.00e6
CG42741	DRSC22045	7.92e5	4.97e5	2.61e6	1.82e6
CG42741	DRSC30003	3.84e5	2.94e5	9.73e5	1.14e6
CG8736	DRSC07255	5.06e5	4.54e5	3.34e6	2.47e6
CG8736	DRSC27360	3.19e5	4.13e5	4.15e5	4.74e5
CG31627	DRSC22143	1.02e6	9.98e5	2.28e6	1.67e6
Gtpx	DRSC08221	1.34e6	5.30e5	1.70e6	7.75e5
Gtpx	DRSC22117	7.78e5	6.96e5	1.99e6	1.87e6
Pa1 (PTIP associated 1)	DRSC19422	4.29e5	4.72e5	4.46e6	4.45e6
Pa1 (PTIP associated 1)	DRSC29046	5.90e5	5.22e5	1.71e6	1.46e6
eIF4E3 (eukaryotic translation initiation factor 4E3)	DRSC10952	1.09e6	8.94e5	1.61e6	1.93e6
exu (exuperantia)	DRSC07615	8.89e5	7.81e5	1.53e6	1.36e6
CG31804	DRSC22728	8.53e5	7.26e5	1.32e6	1.15e6
Hex-C (Hexokinase C)	DRSC07079	68925	55309	1.05e6	1.05e6
Hex-C (Hexokinase C)	DRSC24095	3.42e5	4.84e5	3.49e5	3.14e5
Ilp3 (Insulin-like peptide 3)	DRSC10168	3.71e5	3.21e5	3.49e6	2.83e6
subdued	DRSC15137	89640	1.03e5	5.00e5	4.91e5
hale (hale-bopp)	DRSC10882	1.69e5	1.91e5	1.62e6	1.70e6
hale (hale-bopp)	DRSC28772	4.93e5	4.92e5	1.61e6	1.59e6
